Binding data for one molecule are collected here from patent US20150098941A1.

By UniProt entry, the sequences of proteins in these tests, tags left out. Where a name states a change or a piece, a line headed by the entry shows the natural chain unless it says otherwise.
UniProt P51654: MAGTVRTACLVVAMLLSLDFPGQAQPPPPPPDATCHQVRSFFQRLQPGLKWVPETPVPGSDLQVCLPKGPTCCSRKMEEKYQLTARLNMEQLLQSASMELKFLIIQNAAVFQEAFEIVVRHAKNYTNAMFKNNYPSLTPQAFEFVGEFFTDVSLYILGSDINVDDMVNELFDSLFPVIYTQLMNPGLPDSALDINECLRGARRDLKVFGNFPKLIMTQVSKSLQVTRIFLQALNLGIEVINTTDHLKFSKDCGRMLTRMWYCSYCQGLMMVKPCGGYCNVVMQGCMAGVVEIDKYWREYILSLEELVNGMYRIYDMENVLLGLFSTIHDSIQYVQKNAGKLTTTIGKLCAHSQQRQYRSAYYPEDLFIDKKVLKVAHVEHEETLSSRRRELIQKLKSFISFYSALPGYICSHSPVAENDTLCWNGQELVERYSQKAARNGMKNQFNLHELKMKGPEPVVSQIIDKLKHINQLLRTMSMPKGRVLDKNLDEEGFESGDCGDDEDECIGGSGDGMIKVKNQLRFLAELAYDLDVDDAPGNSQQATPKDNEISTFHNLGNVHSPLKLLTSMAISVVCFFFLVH

This test has as its target fused protein GST-GPC3 (GST and human glypican-3 peptide of SEQ ID NO: 16) (human) (UniProt P51654). As to the kind of experiment: SPR (BIACORE 3000), CHO culture supernatant over immobilized GST-GPC3.

Results are given in words; binding and its absence hold for the method and conditions named. Some binding calls cover weakened binding; strength is not graded here. Sequences can lack the tags named with a protein.

B1: Fc-modified humanized anti-GPC3 antibody V1608 (S239D/S298A/K326T/I332E as printed in the table) (antibody, human IgG1, V domains shown)
VH: QVQLVQSGAEVKKPGASVKVSCKASGYTFTDYEMHWVRQAPGQGLEWMGALDPKTGDTAYSQKFKGRVTLTADKSTSTAYMELSSLTSEDTAVYYCTRFYSYTYWGQGTLVTVSS
VL: DVVMTQSPLSLPVTPGEPASISCRSSQSLVHSNGNTYLHWYLQKPGQSPQLLIYKVSNRFSGVPDRFSGSGSGTDFTLKISRVEAEDVGVYYCSQNTHVPPTFGQGTKLEIK
On to B1, for which the binding entry was “binds”.
